Laboratory results as given in patent US20230039219A1, “Improved Cell-Permeable Nuclear Import Inhibitor Synthetic Peptide for Inhibition of Cytokine Storm or Inflammatory Disease and Use Thereof” (priority 2020, published 2023).
Results are given in words; binding and its absence hold for the method and conditions named. Some entries that bind do so weakly or less than the wild type.

Protein sequences, listed by entry. Tags and fused reporters are not part of them.
UniProt P52294: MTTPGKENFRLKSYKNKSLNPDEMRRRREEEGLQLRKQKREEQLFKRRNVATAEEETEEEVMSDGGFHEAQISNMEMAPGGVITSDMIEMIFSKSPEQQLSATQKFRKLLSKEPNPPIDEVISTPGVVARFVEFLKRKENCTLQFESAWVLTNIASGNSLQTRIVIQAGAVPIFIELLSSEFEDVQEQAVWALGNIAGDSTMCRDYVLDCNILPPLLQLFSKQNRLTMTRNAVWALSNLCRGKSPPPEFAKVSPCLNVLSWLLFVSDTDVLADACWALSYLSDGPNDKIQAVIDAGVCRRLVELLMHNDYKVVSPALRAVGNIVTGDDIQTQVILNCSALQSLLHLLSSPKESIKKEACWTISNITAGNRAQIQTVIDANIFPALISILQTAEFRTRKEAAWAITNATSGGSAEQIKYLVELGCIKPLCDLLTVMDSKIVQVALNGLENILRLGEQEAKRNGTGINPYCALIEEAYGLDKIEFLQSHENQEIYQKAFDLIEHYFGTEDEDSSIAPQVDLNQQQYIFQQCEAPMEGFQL

How the values were obtained:
Importin-a5 [1] = target: Importin-a5 (UniProt P52294); test: SPR (Biacore T200), importin a5 immobilised on CM5 chip
Importin-a5 [2] = target: Importin-a5 (UniProt P52294); test: SPR (Biacore T200), importin a5 immobilised on CM5 chip, iCP-NI injected at 10-100 µM

**Q.** Which results are given for IAAVLAAPALVPCVQRKRQKLMPC (NLS part circularized by a disulfide bond between its two flanking cysteines) [improved cell-permeable nuclear import inhibitor (iCP-NI) synthetic peptide, aMTD827-cNLS]?
**A.** binding (Importin-a5 [1]): binds; binding (Importin-a5 [2]): binds
